According to patent publication US10327423B2, “Antimicrobial compounds and compositions, and uses thereof” (Akeso Biomedical, Inc., priority 2014, dated 2019):

Key:
[1] = test system: wild type Campylobacter jejuni NCTC 11168; test: LC-MS metabolomic analysis of spent media; type: cell-based; conditions: FeQ 340 μM, 48 hours in MHB
[2] = test system: Campylobacter jejuni mutant (MOMP268T/G); test: LC-MS metabolomic analysis of spent media; type: cell-based; conditions: FeQ 340 μM, 48 hours in MHB

O=C1[O][Fe]23([O]C(=O)[C@]4(C[C@@H](O)[C@H](O)[C@H](O)C4)[O]2)([O]C(=O)[C@]2(C[C@@H](O)[C@H](O)[C@H](O)C2)[O]3)[O][C@@]12C[C@@H](O)[C@H](O)[C@H](O)C2 [FeQ, a complex of quinic acid with Fe III]
separation of spent media metabolite profiles with and without FeQ (OPLS-DA) ([1]; negative mode): clear separation | separation of spent media metabolite profiles with and without FeQ (OPLS-DA) ([1]; positive mode): clear separation | separation of spent media metabolite profiles with and without FeQ (OPLS-DA) ([2]; negative mode): clear separation | separation of spent media metabolite profiles with and without FeQ (OPLS-DA) ([2]; positive mode): does not cause large detectable change
